Assay results published in US20250283871A1, “COMPOSITIONS AND METHODS FOR MODULATING THE INTERACTION BETWEEN SS18-SSX FUSION ONCOPROTEIN AND NUCLEOSOMES” (Dana-Farber Cancer Institute, Inc., priority 2020, published 2025).

Test system: BAF complex subunits and histone proteins
Experiment: Mass spectrometry proteomics of purified HA-SS18 WT and HA-SS18-SSX1 complexes (Tables 5A-5E)
Set-up: species or system human
Details: HEK-293T; for Total (total peptides) / Unique (unique peptides): HA-SS18SSX1_CHR_peptides: protein identified in the HA-SS18-SSX1 purification from solubilized chromatin (CHR)
[1] = HA-SS18WT_CHR_peptides: HA-SS18 WT purification from nuclease-treated solubilized chromatin (CHR), label = protein identified
[2] = HA-SS18WT_NE_peptides: proteins co-purified with HA-SS18 WT from nuclear extract (NE)

B1: DDX18 (protein, UniProt Q9NVP1 1-670, looked up)
ATP-dependent RNA helicase …: MSHLPMKLLRKKIEKRNLKLRQRNLKFQGASNLTLSETQNGDVSEETMGSRKVKKSKQKPMNVGLSETQNGGMSQEAVGNIKVTKSPQKSTVLTNGEAAMQSSNSESKKKKKKKRKMVNDAEPDTKKAKTENKGKSEEESAETTKETENNVEKPDNDEDESEVPSLPLGLTGAFEDTSFASLCNLVNENTLKAIKEMGFTNMTEIQHKSIRPLLEGRDLLAAAKTGSGKTLAFLIPAVELIVKLRFMPRNGTGVLILSPTRELAMQTFGVLKELMTHHVHTYGLIMGGSNRSAEAQKLGNGINIIVATPGRLLDHMQNTPGFMYKNLQCLVIDEADRILDVGFEEELKQIIKLLPTRRQTMLFSATQTRKVEDLARISLKKEPLYVGVDDDKANATVDGLEQGYVVCPSEKRFLLLFTFLKKNRKKKLMVFFSSCMSVKYHYELLNYIDLPVLAIHGKQKQNKRTTTFFQFCNADSGTLLCTDVAARGLDIPEVDWIVQYDPPDDPKEYIHRVGRTARGLNGRGHALLILRPEELGFLRYLKQSKVPLSEFDFSWSKISDIQSQLEKLIEKNYFLHKSAQEAYKSYIRAYDSHSLKQIFNVNNLNLPQVALSFGFKVPPFVDLNVNSNEGKQKKRGGGGGFGYQKTKKVEKSKIFKHISKKSSDSRQFSH
In the case of B1, the “Total (total peptides)” value is reported as 10, the “Unique (unique peptides)” value is reported as 10 and the “Total (peptides)” value [1] is reported as 9. For the same molecule, the “Unique (peptides)” value [1] was 9, the “Total (peptides)” value [2] was 2 and the “Unique (peptides)” value [2] was 2.

B2: ATAD2B (protein, UniProt Q9ULI0 1-1458, looked up)
ATPase family AAA …: MVNTRKSSLRLLGSKSPGPGPGPGAGAEPGATGGSSHFISSRTRSSKTRAASCPAAKAGGSGGAGVTLDEARKVEVDGSLSDSHVSPPAKRTLKQPDSVCKDKSKSRSTGQREEWNLSTGQARLTSQPGATLPNGHSGLSLRSHPLRGEKKGDGDLSCINGDMEVRKSCRSRKNRFESVNQSLLFDQLVNSTAEAVLQEMDNINIRRNRRSGEVERLRMWTDTEFENMDMYSRVKRRRKSLRRNSYGIQNHHEVSTEGEEEESQEEDGDIEVEEAEGEENDRPYNLRQRKTVDRYQAPPIVPAHQKKRENTLFDIHRSPARRSHIRRKKHAIHSSDTTSSDEERFERRKSKSMARARNRCLPMNFRAEDLASGILRERVKVGASLADVDPMNIDKSVRFDSIGGLSHHIHALKEMVVFPLLYPEIFEKFKIQPPRGCLFYGPPGTGKTLVARALANECSQGDKKVAFFMRKGADCLSKWVGESERQLRLLFDQAYLMRPSIIFFDEIDGLAPVRSSRQDQIHSSIVSTLLALMDGLDNRGEIVVIGATNRLDSIDPALRRPGRFDREFLFNLPDQKARKHILQIHTRDWNPKLSDAFLGELAEKCVGYCGADIKALCTEAALIALRRRYPQIYASSHKLQLDVSSIVLSAQDFYHAMQNIVPASQRAVMSSGHALSPIIRPLLERSFNNILAVLQKVFPHAEISQSDKKEDIETLILEDSEDENALSIFETNCHSGSPKKQSSSAAIHKPYLHFTMSPYHQPTSYRPRLLLSGERGSGQTSHLAPALLHTLERFSVHRLDLPALYSVSAKTPEESCAQIFREARRTVPSIVYMPHIGDWWEAVSETVRATFLTLLQDIPSFSPIFLLSTSETMYSELPEEVKCIFRIQYEEVLYIQRPIEEDRRKFFQELILNQASMAPPRRKHAALCAMEVLPLALPSPPRQLSESEKSRMEDQEENTLRELRLFLRDVTKRLATDKRFNIFSKPVDIEEVSDYLEVIKEPMDLSTVITKIDKHNYLTAKDFLKDIDLICSNALEYNPDKDPGDKIIRHRACTLKDTAHAIIAAELDPEFNKLCEEIKEARIKRGLSVTSEQINPHSTGARKTETRVEEAFRHKQRNPMDVWHNSANKCAFRVRRKSRRRSQWGKGIIKKRKVNNLKKDEEDTKFADYENHTEDRKLLENGEFEVSTDCHEENGEETGDLSMTNDESSCDIMDLDQGQRLNNGAGTKENFASTEEESSNESLLVNSSSSLNPEQTSRKETFLKGNCLNGEASTDSFEGIPVLECQNGKLEVVSFCDSGDKCSSEQKILLEDQSKEKPETSTENHGDDLEKLEALECSNNEKLEPGSDVEVKDAELDKEGASKVKKYRKLILEQAKTTSLELVPEEPSEPVPPLIVDRERLKKLLDLLVDKSNNLAVDQLERLYSLLSQCIYRHRKDYDKSQLVEEMERTVHMFETFL
B2 was tested, and the “Total (total peptides)” value was 10, the “Unique (unique peptides)” value was 10 and the “Total (peptides)” value [1] was 13. The “Unique (peptides)” value [1] was 11.
